The values that follow come from paper PMC11584650, “An inhibitory segment within G-patch activators tunes Prp43-ATPase activity during ribosome assembly” (Nature Communications, 2024).

Sequences of proteins named here, by UniProt entry; tags and fusion partners are left off.
UniProt P53131: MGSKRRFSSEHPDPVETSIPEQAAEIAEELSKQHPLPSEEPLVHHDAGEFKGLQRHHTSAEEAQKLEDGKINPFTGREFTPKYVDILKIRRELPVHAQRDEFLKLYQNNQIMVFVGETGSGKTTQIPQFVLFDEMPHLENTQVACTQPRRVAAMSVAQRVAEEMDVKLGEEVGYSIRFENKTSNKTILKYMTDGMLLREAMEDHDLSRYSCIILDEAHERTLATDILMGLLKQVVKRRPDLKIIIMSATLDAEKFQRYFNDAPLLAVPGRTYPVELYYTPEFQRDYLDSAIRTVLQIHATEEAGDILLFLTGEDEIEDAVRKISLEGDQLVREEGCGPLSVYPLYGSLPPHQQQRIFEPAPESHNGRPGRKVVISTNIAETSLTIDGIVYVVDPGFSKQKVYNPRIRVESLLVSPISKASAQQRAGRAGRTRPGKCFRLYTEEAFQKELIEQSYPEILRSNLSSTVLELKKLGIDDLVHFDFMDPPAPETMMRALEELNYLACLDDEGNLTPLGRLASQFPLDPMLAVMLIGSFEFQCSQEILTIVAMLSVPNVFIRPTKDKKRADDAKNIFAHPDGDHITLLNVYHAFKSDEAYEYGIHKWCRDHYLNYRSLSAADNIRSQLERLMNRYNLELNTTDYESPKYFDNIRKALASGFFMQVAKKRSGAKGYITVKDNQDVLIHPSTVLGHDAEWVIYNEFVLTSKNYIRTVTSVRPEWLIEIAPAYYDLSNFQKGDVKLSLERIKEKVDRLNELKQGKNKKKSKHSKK

These are yes or no findings as the source states them, for the method shown. Binding seen in cells or lysates may run through a third protein. Here binding means that the protein was enriched with, or labelled near, the bait; the list need not be complete.

First the molecules themselves.
B1: Pfa1 (protein, UniProt P53866 1-767)
chain: MAKRHSHYQGSRRRHARGSNSKKAGRGNAKGIQGRKIKKKPTPTNSWHNSSIPLGEGDLDDVGADFNPGRAFISPKTIEDYYFGRDAKSRSMKMGGLRPGNRYDSSTDLQAGRAAFRKRPMQFVKAKEVYDPSHNMIQKLRAKNETKNSEEIVEREADVFEEPGKMTSDVEYINNEDSENEDDDSQNSPSTDHSLSSNESKVEDGDLFFVDEEAQQSPDLTKIKRVCIEEIARPREVAIEFDPILTIGKVELSVSEGNESKEISVDVPNKGNKTYHPFAGYISNVLHGMHTSDSDNDELDYEIETENNSEPLYESSASSEVDQGFNYVGQRHNSRADNNLLPSPSPQLTEDIKCLSINGTKTFEGNNDNLPSPASEELEFGFKEEDFVINTNDIVVSNIRMGGVDNSYYLRCYRLLGDYDFHWIDQDLLTDFVVDELGLPEDRLPAYLNFIKNSLIPKIEPAEPTYSDIPISDSSDEGDSYEGDSYEDDEDMASSVVHSDIEEGLDDLIAYTLKHDTERFKTFETKSLETKGKGKKKKLLIDDALALDTETLETLQSKFSKRIETKAKKRKAKEDFIDQENRNSNDMLKKYPYGLHIQNIKDEFESFLSRNNDRLTFPPLDPHGNKTVMKIAKHYNMKSSKIGKANHTSVVVEKIKKTKWSSPNYSLIDQLMRQRPVFMRIDIRRPREEQAAFERTKTIRGKFHVKEGEIVGQNAPEIGNENIGRRMLEKLGWKSGEGLGIQGNKGISEPIFAKIKKNRSGLRHSES
B2: Pxr1 (protein, UniProt P53335 1-271)
chain: MGLAATRTKQRFGLDPRNTAWSNDTSRFGHQFLEKFGWKPGMGLGLSPMNSNTSHIKVSIKDDNVGLGAKLKRKDKKDEFDNGECAGLDVFQRILGRLNGKESKISEELDTQRKQKIIDGKWGIHFVKGEVLASTWDPKTHKLRNYSNAKKRKREGDDSEDEDDDDKEDKDSDKKKHKKHKKHKKDKKKDKKDKKEHKKHKKEEKRLKKEKRAEKTKETKKTSKLKSSESASNIPDAVNTRLSVRSKWIKQKRAALMDSKALNEIFMITND
B3: Ntr1 (protein, UniProt Q06411 1-708)
chain: MEDSDSNTDKKFFFKKRRIDSYNYSDEEDNNSSMNSDMTYTNDALKTSSGNAPTISKLTKTYGIGAKLLSSMGYVAGKGLGKDGSGITTPIETQSRPMHNAGLGMFSNTNSSNYHSENEDYLSSEDEVVEGIEQVKFNKTSTEVLGEALLNDSGDMTIVRTLRELRLAGVQLPESILKELDPLNAVPKPKKDVVVEILQELLGIEKSLEAIRQRTSPLEVQVKEYYGQERLLSELEVTLRDESKHVSLYDKIGAILKLSDDELIDRLTSCLLRKELLIEFDLDHLEKPNDILDELTQIIELLAYRMDTTSKFLNRTQTTIFKVIYPKLKKFWEGFDMTKSKIDSAITLLLDFQQVLSFIGCKEHIMEEFVYPKLLQELDNWELHDEVDHVSPRIWVLDFMVLIDDKIKDTIVDKIEAKFFAYCKNWYHRESFCITNSDIIFIKELICERRYYKILCKEFLPKFLDELWERHNDPIYELEDWKEKQEWKEKDSGFFYFMKKLRSYTHYFHPKQYELMMRGTFNNINKILYQWHLYSTVEDLHKSKWWLNWLMNTVFEHSLPTEIELSEIRKSYNIFAMSHRYHLDKSTLDEDFDLRQGLRNLMETQVIDDISQSEQEPTYTVQNIPLGKVSSSFKDVVEDYCLEKGYLISKIPNRYTQLPYGRDQDCIVPLFEIRNGKKKMEVALKHDILWVEDSSGTFKPIYLWALDL

The test addresses Prp43-TAP (S. cerevisiae) (UniProt P53131). The experiment in a line: affinity purification with mass spectrometry; Prp43-TAP purified from yeast lysate (IgG Sepharose, TEV elution, Calmodulin Sepharose, EGTA elution); eluate analysed by label-free quantitative mass spectrometry; untagged BY4741 as control.
For the molecule B1, the binding entry is recorded as “binds”. The entry for B2 is “binds”; for B3 it is “binds”.
